Literature values as cited in patent publication US20110098314A1, “STATINS FOR THE TREATMENT OF OCULAR HYPERTENSION AND GLAUCOMA” (ALCON, INC., priority 2005, published 2011).
At least one compound was matched to its structure with a doubt left.

Test system: intraocular pressure
Conditions: in vivo; cited from earlier work

In the case of `CCOC(=O)C(C)(C)Oc1ccc(Cl)cc1` [Clofibrate], the IOP lowering is given as “reported to lower IOP”.
